# Results as given in the supplement of paper PMC12889115.
# This is one part of the list. These are raw signals, not scaled to a control.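 First-pass screen: polymyxin B was added at a level that permeabilizes the Salmonella outer membrane while sparing the inner membrane. DMSO wells, with and without polymyxin B, defined maximum growth. Because plates differed from one another, each plate's data were ranked separately and the compounds with the lowest OD600 were carried forward as hits.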
# System: Salmonella enterica serovar Typhimurium SL1344
# Assay: bacterial growth OD600 after 18 h with compound and polymyxin B; higher = more bacterial growth (less inhibition)
# Conditions: 50 µM, Mueller-Hinton broth
SMILES,bacterial growth OD600 (polymyxin B 1 µg/mL),bacterial growth OD600 (polymyxin B 0.75 µg/mL)
CCn1ncc(CNC2CC(=O)N(Cc3cccc(F)c3)C2)c1C (configuration not stated),1.04,–
CC(C)(C)C(=O)Nc1ccnn1C1CCN(C(=O)CCC(=O)c2ccccc2)CC1,1.06,–
COc1cc(CN2Cc3cc(Cl)ccc3OC(C)C2)cc(OC)c1O (configuration not stated),–,0.826
Cc1ncc(CNCc2cccnc2N2CCCCCCC2)n1C,–,0.823
O=C(CC1(c2ccccc2)CC(=O)N(Cc2ccncc2)C1=O)N(Cc1ccccc1)CC1CC1 (configuration not stated),–,-0.003
O=C(c1ccccc1OC1CCN(Cc2cccc(F)c2F)CC1)N1CCCC1,0.931,–
CCCc1cc(CNC(=O)c2ccc(N3CCC4(CCN(CC)C4)C3)nc2)on1 (configuration not stated),0.984,–
Cn1nccc1C(=O)NC1CCCN(C2CCCCCC2)C1 (configuration not stated),0.9,–
C=CCN(CC=C)C(=O)CC1C(=O)NCCN1Cc1ccc(C)cc1 (configuration not stated),0.972,–
CC(C)CN1CCC(CN(C)C(=O)c2cc(COc3ccc4ncccc4c3)on2)C1 (configuration not stated),–,0.884
CC(=O)N[C@@H]1c2ccccc2C2(CCN(C(=O)c3cccc(F)c3F)CC2)[C@H]1OCc1ccccc1,–,0.688
CC(C)(C)NC(=O)c1coc(COc2ccc(F)cc2Cl)n1,0.863,–
COc1ccc(CN2CCC(O)(Cc3cc(-c4ccccc4)no3)CC2)cc1C,0.794,–
Cc1ccc(CN2CCC(N3CCCC(C(=O)NC4CC4)C3)CC2)cc1C (configuration not stated),–,0.817
Cc1ccc(-c2n[nH]cc2CNCc2cccc(OC(F)(F)F)c2)cc1C,0.667,–
FC(F)(F)c1ccccc1CCNc1nncc(-c2ccccc2)n1,0.991,–

SMILES,bacterial growth OD600 (polymyxin B 1 µg/mL),bacterial growth OD600 (polymyxin B 0.75 µg/mL)
CN(C)c1ncccc1CNC(=O)C1CCOC1 (configuration not stated),0.755,–
CC(C)CCN1CCC(N2CCC(C(=O)NCc3cccnc3)CC2)CC1,0.941,–
Cc1cccc(OC2CCN(C(=O)c3cn(Cc4ccccc4C)nn3)CC2)c1,0.585,–
Cc1cc2c(cc1CNC1CC(=O)N(CCCc3ccccc3)C1)OCO2 (configuration not stated),0.927,–
O=C1N(CC2CCCCC2)CCCC1(O)CNC1CCCC1 (configuration not stated),–,1.02
Cc1nonc1CN(C)c1ccc(-c2nc(Cc3ccc(F)cc3)no2)cn1,–,0.772
Cc1nccn1-c1ccc(NC(=O)C2CCCN2C(=O)c2ccoc2)cc1 (configuration not stated),–,0.817
Cc1ccc(CN2CCOc3ccc(C(C)(O)COc4ccccc4)cc3C2)s1 (configuration not stated),–,0.023
COc1cccc(CN2CCCC(O)(CN3CCC4(CC3)OCCO4)C2=O)c1 (configuration not stated),0.803,–
COc1cccc(CC2(CO)CCCN(Cc3cn(C)nc3C)C2)c1 (configuration not stated),0.926,–
COC(=O)c1ccc(CNC2CCN(c3ccc(CC(=O)NCc4ccccc4)cc3)CC2)cc1,–,0.919
CCOC(=O)N1CCC(NC(=O)c2ccc(OC3CCN(C)CC3)c(OC)c2)CC1,–,0.845
O=C(c1cn(C2CCCCC2)nn1)N1CCCC1c1ccc(F)cc1 (configuration not stated),0.66,–
O=C(Cc1cn2ccsc2n1)NCc1cccnc1Oc1ccccc1,0.879,–
CCOC(=O)C1(CCCc2ccccc2)CCCN(C(=O)c2cc(=O)n(C)c(=O)n2C)C1 (configuration not stated),1.09,–
COC(=O)C1CCCCN1Cc1nc(NCc2cccs2)c2ccccc2n1 (configuration not stated),–,0.687

# By substructure, those above containing a Cl atom (2)
SMILES,bacterial growth OD600 (polymyxin B 1 µg/mL),bacterial growth OD600 (polymyxin B 0.75 µg/mL)
COc1cc(CN2Cc3cc(Cl)ccc3OC(C)C2)cc(OC)c1O (configuration not stated),–,0.826
CC(C)(C)NC(=O)c1coc(COc2ccc(F)cc2Cl)n1,0.863,–
